Reference: ChEMBL document CHEMBL5321243, “The Cytotoxic Cardiac Glycoside (-)-Cryptanoside A from the Stems of Cryptolepis dubia and Its Molecular Targets” (J Nat Prod, 2023)

Tested on: MDA-MB-231
Assay: Cytotoxicity against human MDA-MB-231 cells incubated for 72 hrs by Cell titer blue assay
Assay type: functional, cell-based
Conditions: MDA-MB-231, 72 h
Outline: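 Cells grown in RPMI 1640 with 10% FBS, penicillin and streptomycin at 37 °C, 5% CO₂; 5,000 log-phase cells per well seeded, left overnight, then exposed 72 h to serial dilutions from DMSO (DMSO vehicle; paclitaxel positive control). Viability read by CellTiter-Blue absorbance; IC50 relative to vehicle by nonlinear regression; triplicate, three independent experiments.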

Compound: CC(=O)O[C@H]1C(=O)[C@@]2(C)[C@H]([C@H](OC(=O)c3ccccc3)[C@]3(O)C[C@H](OC(=O)[C@H](O)[C@@H](NC(=O)c4ccccc4)c4ccccc4)C(C)=C1C3(C)C)[C@]1(OC(C)=O)CO[C@@H]1C[C@@H]2O [PACLITAXEL]
- IC50: 3.8 µM
